Counter-ions that a name gives are not always drawn. The list shows a part of the results. The calls rarely recur for the same compound in another form.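 In K562 cells expressing nanoluciferase-fused kinases, luminescence was recorded at 4 h intervals between 2 and 18 h, normalized as percent of control with DMSO at 100% and a positive control at 0%. A significant (2 sigma) signal drop marks a time point as decreased. The authors' rule for a hit is not shown and takes in more than the number of time points.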
Each compound was assayed against RIPK2 (UniProt O43353) (assay: kinase-Nluc reporter destabilization hit call (1 = scored as downregulated) (binary); higher = compound decreases kinase abundance). Details: K562; 2-18 h.

kinase-Nluc reporter destabilization hit call, inactive:
O=C(CSC1=NCCN1)NC1CCCCCC1 [ICCB-19 (hydrochloride)] (2.5 µM) 0, CCCS(=O)(=O)Nc1ccc(F)c(C(=O)c2c[nH]c3ncc(-c4ccc(Cl)cc4)cc23)c1F [Vemurafenib] (10 µM) 0, Cc1ccc(OCCSc2ncccn2)c(Br)c1 [ZLN024 (hydrochloride)] (10 µM) 0, Nc1ncnc2c1c(-c1ccc(Oc3ccccc3)cc1)nn2C1CCCC1 (2.5 µM) 0, COc1ncc(Cl)cc1S(=O)(=O)Nc1ccc(F)c(C#Cc2cnc(N)nc2)c1F (2.5 µM) 0, Cc1ccc(CNc2ncnc3ccc(-c4ccc(CO)o4)cc23)o1 (10 µM) 0, NC(=O)c1nnc(N[C@@H]2CCCC[C@@H]2N)nc1Nc1cccc2cc[nH]c12 (10 µM) 0, CNc1nc(Nc2ccc(C(=O)N3CCOCC3)cc2OC)nc2[nH]cc(Cl)c12 (2.5 µM) 0, CCNc1nc(Nc2cc(F)c(C(=O)N3CCOCC3)cc2OC)ncc1C(F)(F)F [GNE-7915 (tosylate)] (10 µM) 0, CCN1CCN(Cc2ccc(Nc3ncc(F)c(-c4cc(F)c5nc(C)n(C(C)C)c5c4)n3)nc2)CC1 [Abemaciclib] (2 µM) 0, COCCNc1nc2ccc(C#CC3(O)CCCCC3)cc2n1-c1ccnc(N)n1 (10 µM) 0, OCCn1cc(-c2ccc3c(c2)CC/C3=N\O)c(-c2ccncc2)n1 (10 µM) 0, O=C1N[C@@H](Cc2c[nH]c3ccccc23)C(=O)N2CCC[C@@H]12 [Brevianamide F] (10 µM) 0, Cn1nccc1Nc1nccc(-c2ccn([C@H](CO)c3ccc(Cl)c(F)c3)c(=O)c2)n1 [Ravoxertinib] (10 µM) 0, O=C(NCCN1CCOCC1)c1cc2c(Oc3ccc(NC(=O)C4(C(=O)Nc5ccc(F)cc5)CC4)cc3)ccnc2[nH]1 [Tyrosine kinase inhibitor] (10 µM) 0, COc1cc2c(N3CCN(C(=O)Nc4ccc(OC(C)C)cc4)CC3)ncnc2cc1OCCCN1CCCCC1 [Tandutinib (hydrochloride)] (10 µM) 0, COc1cc(/C=C/C(=O)NCC(O)c2ccc(O)cc2)ccc1O (stereo unspecified) [N-Feruloyloctopamine] (2.5 µM) 0, COc1cc2nccc(Oc3ccc(NC(=O)NC4CC4)c(Cl)c3)c2cc1C(N)=O [Lenvatinib (mesylate)] (10 µM) 0, CN1CCN(c2cccc(Nc3nc4c(-c5ccc(S(C)(=O)=O)cc5)cccn4n3)c2)CC1 (10 µM) 0, C=C(CC[C@@H](C(=O)O)[C@H]1[C@H](O)C[C@@]2(C)C3=C(CC[C@]12C)[C@@]1(C)CC[C@H](OC(C)=O)C(C)(C)[C@@H]1CC3)C(C)C [Pachymic acid] (10 µM) 0, O=c1[nH]c(=O)n([C@@H]2O[C@H](CO)[C@@H](O)[C@@H]2O)cc1/C=C/Br [Sorivudine] (10 µM) 0, NC(=O)c1ccc(-c2nc(-c3ccc4c(c3)OCCO4)c(-c3ccccn3)[nH]2)cc1 (10 µM) 0, CC#CC(=O)Nc1ccc2ncnc(Nc3cccc(Br)c3)c2c1 (10 µM) 0, CCc1c(C(=O)NNC(=O)C(O)c2cc(F)cc(F)c2)ccc(O)c1C (stereo unspecified) (10 µM) 0, CC(=O)c1c(C)cc2cccc(O)c2c1O [Nepodin] (10 µM) 0, Cc1c(-c2c(F)cc(C(N)=O)c3[nH]c4c(c23)CC[C@H](C(C)(C)O)C4)cccc1-n1c(=O)c2cccc(F)c2n(C)c1=O (2.5 µM) 0, CCc1cc2c(cc1N1CCC(N3CCOCC3)CC1)C(C)(C)c1[nH]c3cc(C#N)ccc3c1C2=O [Alectinib] (10 µM) 0, FC(F)c1nc2ccccc2n1-c1nc(N2CCOCC2)nc(N2CCOCC2)n1 (2 µM) 0, FC(F)(c1ccc2ncccc2c1)c1nnc2ccc(-c3ccncc3)nn12 (10 µM) 0, Cn1cc(-c2cnn3c(N)c(Br)c([C@@H]4CCCNC4)nc23)cn1 (2.5 µM) 0, C[C@@H]1COCCN1c1cc(C2([S@@](C)(=N)=O)CC2)nc(-c2ccnc3[nH]ccc23)n1 [(S)-Ceralasertib] (10 µM) 0
